Results as given in article PMC7508583, “Discovery and Preclinical Development of Antigiardiasis Fumagillol Derivatives” (Antimicrobial Agents and Chemotherapy, 2020).

Assay: in vitro
Details: human
Source text: Next, we tested the permeation of the compounds across polarized Caco-2 cell monolayers, a method that is widely used as an in vitro model of the human small intestinal mucosa to predict the absorption of orally administered drugs ([63], [64]). With noninvasive intestinal infections, there is no need to establish a high plasma concentration. Since a high rate of uptake through the host gut lining could increase compound toxicity, we sought to reduce gut absorption. […] Both apical-to-basal and basal-to-apical permeation values were measured to obtain information about efflux. […] The efflux machinery is currently unknown.
Passage 36 Caco-2 cells were used. […]
For sample processing, a single-point calibration curve in HBSS buffer with 2% BSA was used. […] One hundred microliters of the supernatant was diluted with 200 μl of water and analyzed by LC-MS/MS (with a Shimadzu ultrafast liquid chromatograph and an API 4000 LC-MS/MS system).
The apparent permeation coefficients (Papp) were calculated as Papp = (dQ/dT) × (1/C0) × (1/A), where dQ is the amount permeated to the receiver compartment of the 96-well plate, dT is the time of compound incubation, C0 is the initial compound concentration in the donor compartment of the well, and A is the surface area of the monolayer.

efflux ratio at 120 min, 10 µM (Caco-2, pH 7.4): 0.45 | Papp at 120 min, 10 µM (Caco-2, pH 7.4, Mean ± SE Papp, apical to basal, Caco-2, 10 μM, 120 min): 0.32 ×10⁻⁶ cm/s
Structure (SMILES): CC(C)NCC(O)COc1ccc(CC(N)=O)cc1 (centres unmarked) [Atenolol]
